Experimental data: US20250288206A1, “SYSTEMS AND METHODS FOR MONITORING OF DELIVERY OF LABEL-FREE DRUGS” (City University of Hong Kong, priority 2024, published 2025)

How the values were obtained:
[1] = CEST imaging of phantoms (Z-spectra at 3T); type: physicochemical; conditions: for Observed CEST Contrast Offset: solvent in HEPES buffered saline
[2] = Bloch-McConnell fitting of DMSO CEST peak; type: physicochemical; conditions: fitted value; B0 3T, B1 1.2 μT, Tsat 4 s
Method: During the course leading to the present invention, a series of internal and external factors that can influence DMSO's CEST effect were examined. DMSO's concentration linearly correlated with observed signal magnitude, while the change in signal when varying pH from pH 5.5 to pH 8 was less obvious. As temperature went down from 40° C. to 20° C., DMSO's CEST peak gradually moved upfield (please see FIGS. 1F to 1G). It appears that intermolecular interaction between DMSO and water was dependent on temperature. […] Exchange rate and was estimated with Bloch-McConnell fitting. Input of solute concentration was 1.41 M (molar concentration of 10% v/v DMSO) multiplied by a factor of 1.4, which was an estimation of concentration of “structured” water that formed by intermolecular interaction with DMSO and thereby served as relaying sites.

Compound: 1-propanol
- Observed CEST Contrast Offset [1]: −3.8 ppm

Compound: CC(C)O [2-Propanol (Isopropanol), 2-propanol]
- Observed CEST Contrast Offset [1]: −3.6 ppm

Compound: O=C1CC(=O)NC(=O)N1 [BA, barbituric acid, reference compound]
- CEST peak offset [1]: 5 ppm

Compound: C[S+](C)[O-] [DMSO, dimethyl sulfoxide]
- CEST peak offset [1]: around −2 ppm
- Observed CEST Contrast Offset [1]: −2 ppm
- DMSO T2b [2]: 0.4607 s

Compound: CCO [Ethanol, ethanol]
- Observed CEST Contrast Offset [1]: −3.6 ppm

Compound: CO [Methanol, methanol]
- Observed CEST Contrast Offset [1]: −1.4 ppm

Compound: acetone
- CEST peak offset [1]: around −2.5 ppm
- Observed CEST Contrast Offset [1]: −2.5 ppm

Compound: acetonitrile
- CEST peak offset [1]: around −2.5 ppm
- Observed CEST Contrast Offset [1]: −2.5 ppm
